No constants are given. Whether binding was seen depends on the method and setting. Binding seen in cells or lysates may run through a third protein. These calls come from enrichment with a bait or labelling near it, and not all partners need be listed.

The chains behind the UniProt entries cited, without tags or fusion partners.
UniProt O54941: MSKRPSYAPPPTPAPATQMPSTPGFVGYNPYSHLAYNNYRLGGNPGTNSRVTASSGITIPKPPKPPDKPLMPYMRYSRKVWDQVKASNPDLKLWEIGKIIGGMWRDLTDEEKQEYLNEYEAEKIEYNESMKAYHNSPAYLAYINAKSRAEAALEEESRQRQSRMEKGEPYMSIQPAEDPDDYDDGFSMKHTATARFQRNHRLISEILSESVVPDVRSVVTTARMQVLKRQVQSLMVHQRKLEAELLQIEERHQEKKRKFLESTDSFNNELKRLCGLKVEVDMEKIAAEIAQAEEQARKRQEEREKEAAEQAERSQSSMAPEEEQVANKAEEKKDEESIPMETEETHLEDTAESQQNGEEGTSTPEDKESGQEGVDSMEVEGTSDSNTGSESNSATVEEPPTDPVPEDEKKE
UniProt P97496: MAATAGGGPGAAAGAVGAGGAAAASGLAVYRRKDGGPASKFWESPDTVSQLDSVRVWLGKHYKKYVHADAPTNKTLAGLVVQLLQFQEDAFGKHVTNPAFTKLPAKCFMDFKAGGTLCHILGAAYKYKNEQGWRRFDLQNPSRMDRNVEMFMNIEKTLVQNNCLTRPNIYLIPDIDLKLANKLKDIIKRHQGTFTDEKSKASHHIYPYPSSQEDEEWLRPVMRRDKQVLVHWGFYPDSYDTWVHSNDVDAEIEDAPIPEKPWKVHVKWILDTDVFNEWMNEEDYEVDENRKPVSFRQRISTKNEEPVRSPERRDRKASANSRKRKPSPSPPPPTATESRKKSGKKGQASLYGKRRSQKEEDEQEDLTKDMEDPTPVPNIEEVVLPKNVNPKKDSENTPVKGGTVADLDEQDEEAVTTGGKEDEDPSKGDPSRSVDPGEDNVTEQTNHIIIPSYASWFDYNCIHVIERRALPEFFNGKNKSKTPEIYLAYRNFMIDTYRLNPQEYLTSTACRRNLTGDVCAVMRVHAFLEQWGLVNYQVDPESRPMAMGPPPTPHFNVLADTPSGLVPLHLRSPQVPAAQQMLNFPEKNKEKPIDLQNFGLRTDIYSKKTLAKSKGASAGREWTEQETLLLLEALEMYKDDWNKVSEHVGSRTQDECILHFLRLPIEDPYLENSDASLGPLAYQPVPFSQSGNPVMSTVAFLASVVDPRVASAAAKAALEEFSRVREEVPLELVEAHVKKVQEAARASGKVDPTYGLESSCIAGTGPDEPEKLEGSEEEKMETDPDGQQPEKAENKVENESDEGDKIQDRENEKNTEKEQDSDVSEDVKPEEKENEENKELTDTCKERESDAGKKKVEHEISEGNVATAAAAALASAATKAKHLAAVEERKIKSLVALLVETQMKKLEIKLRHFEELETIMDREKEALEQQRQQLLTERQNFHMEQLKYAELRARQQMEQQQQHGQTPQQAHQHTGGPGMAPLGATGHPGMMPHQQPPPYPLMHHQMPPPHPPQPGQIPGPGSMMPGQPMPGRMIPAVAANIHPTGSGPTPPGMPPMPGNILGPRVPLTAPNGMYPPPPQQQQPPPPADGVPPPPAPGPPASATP
UniProt Q8BSQ9: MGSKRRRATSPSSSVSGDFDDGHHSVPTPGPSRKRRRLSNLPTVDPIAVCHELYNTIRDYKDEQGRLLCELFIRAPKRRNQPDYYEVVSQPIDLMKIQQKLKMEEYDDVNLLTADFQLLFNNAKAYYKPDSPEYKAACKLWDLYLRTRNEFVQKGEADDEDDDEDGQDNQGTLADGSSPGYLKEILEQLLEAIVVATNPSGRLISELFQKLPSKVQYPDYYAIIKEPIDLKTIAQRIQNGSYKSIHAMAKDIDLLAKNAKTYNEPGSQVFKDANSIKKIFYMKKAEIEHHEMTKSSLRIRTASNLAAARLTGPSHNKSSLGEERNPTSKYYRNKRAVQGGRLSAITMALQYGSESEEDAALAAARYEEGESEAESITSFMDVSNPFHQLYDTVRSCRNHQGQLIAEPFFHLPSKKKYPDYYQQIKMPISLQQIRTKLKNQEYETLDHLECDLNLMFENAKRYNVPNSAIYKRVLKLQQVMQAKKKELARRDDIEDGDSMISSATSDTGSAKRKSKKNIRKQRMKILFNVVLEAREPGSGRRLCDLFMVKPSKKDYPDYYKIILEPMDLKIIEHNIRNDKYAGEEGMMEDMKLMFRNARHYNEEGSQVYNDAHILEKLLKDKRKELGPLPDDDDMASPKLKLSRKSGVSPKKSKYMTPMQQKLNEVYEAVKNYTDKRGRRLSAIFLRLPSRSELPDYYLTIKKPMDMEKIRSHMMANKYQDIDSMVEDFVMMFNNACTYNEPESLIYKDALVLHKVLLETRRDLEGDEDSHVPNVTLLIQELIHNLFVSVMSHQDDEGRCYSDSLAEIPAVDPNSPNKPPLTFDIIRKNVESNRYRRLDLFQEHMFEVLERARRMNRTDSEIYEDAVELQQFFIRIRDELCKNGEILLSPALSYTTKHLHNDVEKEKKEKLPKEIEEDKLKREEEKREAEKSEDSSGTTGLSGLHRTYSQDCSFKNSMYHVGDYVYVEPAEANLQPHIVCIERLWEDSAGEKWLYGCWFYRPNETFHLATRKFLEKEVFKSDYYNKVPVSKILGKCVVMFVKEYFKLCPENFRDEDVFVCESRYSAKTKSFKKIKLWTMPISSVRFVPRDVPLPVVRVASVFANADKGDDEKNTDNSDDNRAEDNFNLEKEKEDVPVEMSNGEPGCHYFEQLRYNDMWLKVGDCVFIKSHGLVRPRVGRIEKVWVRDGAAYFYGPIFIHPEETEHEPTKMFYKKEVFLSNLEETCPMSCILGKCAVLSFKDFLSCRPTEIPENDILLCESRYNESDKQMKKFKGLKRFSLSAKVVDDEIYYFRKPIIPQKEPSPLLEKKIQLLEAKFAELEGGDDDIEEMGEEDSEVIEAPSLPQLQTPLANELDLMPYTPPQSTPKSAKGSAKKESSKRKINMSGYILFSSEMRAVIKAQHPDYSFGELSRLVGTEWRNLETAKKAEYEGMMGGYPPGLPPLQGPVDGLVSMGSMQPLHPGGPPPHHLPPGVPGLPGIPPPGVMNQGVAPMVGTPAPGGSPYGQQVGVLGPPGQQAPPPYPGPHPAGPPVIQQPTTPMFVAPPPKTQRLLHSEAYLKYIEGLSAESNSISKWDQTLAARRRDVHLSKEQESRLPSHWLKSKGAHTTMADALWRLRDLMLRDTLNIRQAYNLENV
UniProt Q3TKT4: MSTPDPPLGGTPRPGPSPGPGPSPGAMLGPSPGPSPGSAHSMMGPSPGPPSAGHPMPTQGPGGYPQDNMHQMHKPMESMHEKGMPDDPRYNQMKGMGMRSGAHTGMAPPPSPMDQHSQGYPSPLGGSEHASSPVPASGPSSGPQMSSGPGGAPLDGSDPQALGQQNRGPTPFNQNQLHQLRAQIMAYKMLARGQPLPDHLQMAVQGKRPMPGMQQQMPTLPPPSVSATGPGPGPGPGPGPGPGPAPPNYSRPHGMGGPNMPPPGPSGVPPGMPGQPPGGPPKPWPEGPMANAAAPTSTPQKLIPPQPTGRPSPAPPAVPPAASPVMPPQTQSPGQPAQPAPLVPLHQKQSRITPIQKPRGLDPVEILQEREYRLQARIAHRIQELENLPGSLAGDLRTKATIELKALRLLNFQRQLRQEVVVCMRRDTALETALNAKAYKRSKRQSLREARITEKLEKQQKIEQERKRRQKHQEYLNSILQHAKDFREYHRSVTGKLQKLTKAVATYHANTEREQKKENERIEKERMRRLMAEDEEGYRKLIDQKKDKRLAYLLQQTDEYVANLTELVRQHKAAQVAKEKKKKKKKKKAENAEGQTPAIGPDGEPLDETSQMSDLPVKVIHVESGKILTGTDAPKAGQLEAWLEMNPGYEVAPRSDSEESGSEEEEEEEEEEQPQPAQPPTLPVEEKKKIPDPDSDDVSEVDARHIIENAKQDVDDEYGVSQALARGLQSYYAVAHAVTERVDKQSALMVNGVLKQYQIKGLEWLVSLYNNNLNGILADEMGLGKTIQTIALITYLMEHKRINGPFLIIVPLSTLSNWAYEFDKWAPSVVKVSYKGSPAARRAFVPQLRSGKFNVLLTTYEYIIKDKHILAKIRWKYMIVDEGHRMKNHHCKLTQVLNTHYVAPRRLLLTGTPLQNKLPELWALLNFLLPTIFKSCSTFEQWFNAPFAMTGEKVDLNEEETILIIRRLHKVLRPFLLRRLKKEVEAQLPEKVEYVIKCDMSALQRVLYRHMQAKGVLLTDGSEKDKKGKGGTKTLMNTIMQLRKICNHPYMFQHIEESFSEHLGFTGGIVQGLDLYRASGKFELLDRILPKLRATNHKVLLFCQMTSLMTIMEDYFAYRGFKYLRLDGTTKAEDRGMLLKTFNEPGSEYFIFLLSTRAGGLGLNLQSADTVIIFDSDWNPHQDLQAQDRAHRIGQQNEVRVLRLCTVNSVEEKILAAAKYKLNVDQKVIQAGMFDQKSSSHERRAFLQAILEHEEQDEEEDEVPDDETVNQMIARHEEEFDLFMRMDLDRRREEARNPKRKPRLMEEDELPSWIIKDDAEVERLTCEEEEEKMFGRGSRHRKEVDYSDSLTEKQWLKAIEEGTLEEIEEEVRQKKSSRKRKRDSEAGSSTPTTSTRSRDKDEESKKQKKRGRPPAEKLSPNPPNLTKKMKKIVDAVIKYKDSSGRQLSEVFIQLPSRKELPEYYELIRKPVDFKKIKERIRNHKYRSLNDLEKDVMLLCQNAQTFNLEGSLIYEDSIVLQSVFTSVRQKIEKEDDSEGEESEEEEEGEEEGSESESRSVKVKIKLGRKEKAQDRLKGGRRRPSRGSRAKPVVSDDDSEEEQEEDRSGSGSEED

Experimental findings from paper PMC10682186 are described below.

The assay deals with T1, PHF10A isoform of PHF10 (mouse (endogenous in brain)) (UniProt Q9D8M7).
T1 sequence: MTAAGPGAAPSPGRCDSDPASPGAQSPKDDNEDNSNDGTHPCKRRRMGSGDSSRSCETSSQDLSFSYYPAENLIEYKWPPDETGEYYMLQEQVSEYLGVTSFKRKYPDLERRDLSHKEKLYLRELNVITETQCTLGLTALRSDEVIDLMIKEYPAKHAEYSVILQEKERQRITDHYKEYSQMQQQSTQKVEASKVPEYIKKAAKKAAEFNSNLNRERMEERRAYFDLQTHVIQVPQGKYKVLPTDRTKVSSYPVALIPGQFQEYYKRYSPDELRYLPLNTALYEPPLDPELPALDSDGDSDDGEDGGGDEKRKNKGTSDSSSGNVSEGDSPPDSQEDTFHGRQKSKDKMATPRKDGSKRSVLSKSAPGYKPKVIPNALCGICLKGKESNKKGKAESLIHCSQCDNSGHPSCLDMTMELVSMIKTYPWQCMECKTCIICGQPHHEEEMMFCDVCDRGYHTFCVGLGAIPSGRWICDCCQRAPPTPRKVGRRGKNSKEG
Nature of the assay: affinity purification with mass spectrometry; P1 and P56 mouse brain nuclear extracts fractionated on MonoS (high-salt PBAF or low-salt dcPBAF fractions) and Superose 6; immobilised anti-PHF10 antibodies; loaded in HEMG-150 with 0.1% NP-40, washed with HEMG-1000 (1 M NaCl) with 0.1% NP-40, eluted with 0.1 M glycine pH 2.5; SDS-PAGE bands identified by MALDI-TOF MS.
On to BAF57 (from UniProt O54941 1-411), for which the binding entry was “binds”.
Next, BAF60 (mouse (endogenous in brain)): “binds”.
BAF155 (from UniProt P97496 1-1104): the binding result is recorded as “binds”.
As to “BAF180/PBRM1 (from UniProt Q8BSQ9 1-1634)”, the binding result is reported as “binds”.
Next, BRG1 (from UniProt Q3TKT4 1-1613): “binds”.
